Data: the supplement of paper PMC12578635
± gives the standard deviation of the averaged measurements. The list shows a part of the results. Repeats are few or missing, and single values can be far off.

tested on: RAW 264.7 macrophages infected with S. aureus JE2-lux; experiment: host macrophage viability (CellTiter-Fluor) relative to DMSO vehicle; higher = more viable host cells; conditions: 10 µM; treatment time 4 h; gentamicin 50 µg/ml

Compound | host macrophage viability [%]
Cc1oc(-c2ccno2)cc1S(=O)(=O)NC(C)CCc1ccccc1 (centres undefined) | 98
O=C(Nc1cccc(-c2nnc(-c3ccccc3)o2)c1)Nc1ccc2c(c1)OCCO2 | 106
CCc1ccc2oc(C(=O)Nc3nc(-c4ccc(C)s4)ns3)cc(=O)c2c1 | 113
Cc1oc2ncnc(OCC(=O)Nc3ccc(S(N)(=O)=O)cc3)c2c1C | 108
N#C/C(=C\c1ccc(-c2cccc(Cl)c2)o1)c1nc2ccccc2c(=O)[nH]1 | 128
COc1ccc(NC(=S)N2CCC(NC(=O)c3ccccc3)CC2)c(OC)c1 | 106
CCN(C(=O)CSc1nccnc1N1CCN(c2ccccc2)CC1)c1ccccc1 | 105
CC(=O)c1cccc(N/C=C(\C#N)c2nc(-c3ccc(F)cc3)cs2)c1 | 128
Cc1nc(-c2csc(S(=O)(=O)Nc3ccc(C)c(Cl)c3)c2)no1 | 105
Cc1cccc(N2CCN(S(=O)(=O)c3cc(-c4nc(C)cs4)cs3)CC2C)c1 (centres undefined) | 81.4
COc1ccc(-n2ccn3c(CCC(=O)NCC4CCCO4)nnc3c2=O)cc1 (centres undefined) | 131
Cc1ccccc1-c1nnc2ccc(N3CCC(C(=O)NCCN(C)C)CC3)nn12 | 122
CN1Cc2ccccc2CC1C(=O)N1CCC2(CC1)NC(=O)c1ccccc1O2 (centres undefined) | 108
O=C(O)CCC(=O)Nc1ccc(Cl)cc1-c1nc2ccccc2[nH]c1=O | 114
COc1cc(/C=C(\C#N)c2nc(-c3ccc([N+](=O)[O-])cc3)cs2)ccc1OC(C)=O | 99.6
Cc1ccc(C)c(NC(=O)c2cnc(N(C)C)nc2C)c1 | 97.3
CC1=CC2=NC(=O)CC(C)(C(=O)NCc3n[nH]c4c3CCCC4)N2C=C1 (centres undefined) | 118
O=C(O)Cc1c(-c2ccccc2)c2cc(Cl)ccc2[nH]c1=O | 128
CCOC(=O)c1sc(NC(=O)CCSc2ccccc2)cc1C | 113 ± 14
Cc1oc(-c2ccno2)cc1S(=O)(=O)N1CCCCC1C (centres undefined) | 114
Cc1cn2c(nc3c2c(=O)n(Cc2c(F)cccc2Cl)c(=O)n3C)o1 | 118
Cn1c(=O)n(CC(=O)N2CCCC2)c(=O)c2cc(S(=O)(=O)NCCC3=CCCCC3)ccc21 | 86
O=C(Nc1ccc(F)cc1F)c1ccc(SCCN2CCOCC2)nc1 | 110
O=C(Cc1ccccc1)Nc1nc(-c2nc3ccccc3s2)cs1 | 112 ± 13
Cc1ccc2nc(-c3ccc(F)cc3)nc(SCC(=O)N3CCOCC3)c2c1 | 115
Cc1ccc(-c2nc(SCC(=O)NCc3ccco3)c3ccccc3n2)cc1 | 115

Random excerpt: two compounds from above.
Compound | host macrophage viability [%]
Cc1nc(-c2csc(S(=O)(=O)Nc3ccc(C)c(Cl)c3)c2)no1 | 105
O=C(Nc1cccc(-c2nnc(-c3ccccc3)o2)c1)Nc1ccc2c(c1)OCCO2 | 106

The listing continues.

Compound | host macrophage viability [%]
COc1ccc(NC(=O)Nc2nc3cc(C)c(C)cc3s2)cc1 | 101
O=C(NCc1ccc2c(c1)OCO2)c1ccc(Cl)c(S(=O)(=O)N2CCCC2)c1 | 130
Cc1cc(Nc2ccc(N3CCOCC3)cc2)n2nc(Cc3cccc(F)c3)nc2n1 | 114
CC(CCc1ccco1)NC(=O)Nc1cccc2ccccc12 (centres undefined) | 106
CSc1nc2ccc3nc(NC(=O)c4ccccc4C)sc3c2s1 | 117 ± 4.3
CCN1CCN(c2nc3ncn(CC(=O)Nc4ccc5c(c4)OCO5)c(=O)c3s2)CC1 | 111
CCS(=O)(=O)c1ccc(CC(=O)Nc2nc3ccc(F)cc3s2)cc1 | 112
Cc1c(NC(=O)c2cccc(Cl)c2)c(-n2cnnc2)nn1C | 99.1
CCOc1ccc(NC(=O)COc2cccc3c2CCN(Cc2ccc(F)cc2)C3=O)cc1 | 130
COc1cccc2c(=O)n(CC(=O)Nc3ccccc3C(F)(F)F)ccc12 | 112
COc1cc(C(C)=O)ccc1Oc1ncnc(N)c1[N+](=O)[O-] | 125
C=CCOc1ccccc1NC(=O)Cn1nc(C(F)(F)F)c2c1CCCC2 | 113
Cc1c(C(=O)Nc2cccc(Cl)c2)sc2nc3n(c(=O)c12)N=C(c1ccc(O)c(O)c1)CS3 | 109
Cc1c(Cc2ccc3c(c2)OCO3)sc(NC(=O)c2nc3ccccc3s2)c1C#N | 127
O=C(CSc1nnc2ncccn12)Nc1cccc2ccccc12 | 107
Cc1cc(-n2c(C)nc3ccccc3c2=O)ccc1NC(=O)c1cncc(Br)c1 | 111
O=C(CC1CCCC1)NCCn1nc(-c2cccs2)oc1=O | 120
O=[N+]([O-])c1ccc(S(=O)(=O)N2CCN=C2SCc2cccnc2)cc1 | 116
COc1ccc(-c2cc3nc(C)cc(N4CCN(c5nc(C)cc(C)n5)CC4)n3n2)cc1OC | 101
CCN(CC)S(=O)(=O)c1ccc(-c2nnc(SC(C)C(=O)OC)o2)cc1 (centres undefined) | 122
CCOC(=O)c1nn(-c2ccccc2)c(=O)cc1NCc1ccccn1 | 121
CC1(C)COc2ccc(NC(=O)COc3ccc(F)cc3)cc2NC1=O | 117
NC(=O)c1c(NC(=O)c2cc3c(ccc4ccccc43)oc2=O)sc2c1CCCCC2 | 113 ± 6.7
COc1ccc(CNC(=O)c2c(C)oc3c2C(=O)c2ccccc2C3=O)cc1 | 102
O=c1oc2ccccc2cc1-c1csc(-c2cc3cccc([N+](=O)[O-])c3oc2=O)n1 | 127
CCOC(=O)c1ccc(Oc2ncnc(N)c2[N+](=O)[O-])cc1 | 116

Compound | host macrophage viability [%]
Cc1c(N2CCN(C(=O)Cc3ccc(F)cc3)CC2)c(=O)n(CC(C)C)c(=O)n1-c1ccccc1 | 91
COC(=O)c1ccc(C(=O)/N=c2/sc3cc(F)ccc3n2C)cc1 | 107 ± 5.6
CCC1CCCCN1S(=O)(=O)c1ccc(C(=O)Nc2nc3c(s2)Cc2ccccc2-3)cc1 (centres undefined) | 113
O=C(CC(=O)N/N=C/c1ccc(O)cc1)N/N=C\c1ccc(O)cc1 | 108 ± 11
CCOC(=O)C(C)Oc1cccc2c(=O)n(CC(=O)Nc3ccc(F)cc3F)ccc12 (centres undefined) | 124
Cc1ccc(-c2cc(=O)c3cc(NC(=O)c4ccccn4)ccc3o2)cc1 | 96
O=C(CSCc1ccccc1)Nc1ccc2c3c(cccc13)CC2 | 96.6
CCc1cc(=O)n(CC(=O)NCCC(C)C)c2c1c(C)nn2-c1ccc(C)cc1 | 115
CCOC(=O)c1nn(-c2ccc(F)cc2)c(=O)cc1NCc1cccnc1 | 116
Cn1c(N2CCN(C(=O)c3cc(-c4cccs4)n[nH]3)CC2)cc(=O)n(C)c1=O | 114
COc1ccccc1CCNC(=O)CSc1nc(=O)n(Cc2ccco2)c2c1CCC2 | 106
CN(C(=O)CSc1nc(=O)n2ccccc2n1)c1ccccc1 | 117
CN1C(=O)c2cccc(NC(=O)c3sc4ccccc4c3Cl)c2C1=O | 103
O=C(CSC1=NS(=O)(=O)c2ccccc2N1)Nc1ccc(Br)cc1 | 130
O=C(CCS(=O)(=O)c1ccccc1)Nc1cccc2c1C(=O)NC2=O | 110
CCn1cc(C(=O)N2CCc3ccccc3C2)c(=O)c2ccc(C)nc21 | 112
COc1ccc(Br)cc1CNC(=O)COc1nc(C)nc2oc(C)c(C)c12 | 117
O=C(Nc1ccc(S(=O)(=O)Nc2cncs2)cc1)c1ccc(-c2cccc(C(F)(F)F)c2)o1 | 118
CCOc1ccc(NC(=O)CSc2nncc(=O)[nH]2)cc1 | 109
N#Cc1ccccc1NC(=O)C(=O)NCc1ccccc1Cl | 113
CC1CCc2c(sc3nc(SCC(=O)c4cccs4)[nH]c(=O)c23)C1 (centres undefined) | 114
O=C(O)c1ccc(CN2C(=O)SC(Nc3ccccc3C(=O)O)C2=O)cc1 (centres undefined) | 105
CCOC(=O)C1CCN(C(=O)C2CCN(c3nccc4c(C)nn(CC)c34)CC2)CC1 | 123
CCn1nc(C)c2ccnc(N3CCC(C(=O)Nc4ccc(Br)c(C)c4)CC3)c21 | 107
Cc1ccccc1-n1nc2c(c1NC(=O)c1cc3ccccc3oc1=O)CSC2 | 112
Cc1ccc(-c2c(C(F)(F)F)nn3c(O)cc(C)nc23)cc1 | 140

An excerpt from above in order of SMILES length, low to high.
Compound | host macrophage viability [%]
N#Cc1ccccc1NC(=O)C(=O)NCc1ccccc1Cl | 113
CCOc1ccc(NC(=O)CSc2nncc(=O)[nH]2)cc1 | 109
CN(C(=O)CSc1nc(=O)n2ccccc2n1)c1ccccc1 | 117
CCOC(=O)c1nn(-c2ccccc2)c(=O)cc1NCc1ccccn1 | 121
CC1(C)COc2ccc(NC(=O)COc3ccc(F)cc3)cc2NC1=O | 117
COC(=O)c1ccc(C(=O)/N=c2/sc3cc(F)ccc3n2C)cc1 | 107 ± 5.6
O=C(CCS(=O)(=O)c1ccccc1)Nc1cccc2c1C(=O)NC2=O | 110
COc1ccc(Br)cc1CNC(=O)COc1nc(C)nc2oc(C)c(C)c12 | 117
Cc1ccc(-c2cc(=O)c3cc(NC(=O)c4ccccn4)ccc3o2)cc1 | 96
COc1ccccc1CCNC(=O)CSc1nc(=O)n(Cc2ccco2)c2c1CCC2 | 106
CCc1cc(=O)n(CC(=O)NCCC(C)C)c2c1c(C)nn2-c1ccc(C)cc1 | 115
CCn1nc(C)c2ccnc(N3CCC(C(=O)Nc4ccc(Br)c(C)c4)CC3)c21 | 107
NC(=O)c1c(NC(=O)c2cc3c(ccc4ccccc43)oc2=O)sc2c1CCCCC2 | 113 ± 6.7
CCOC(=O)C1CCN(C(=O)C2CCN(c3nccc4c(C)nn(CC)c34)CC2)CC1 | 123
Cn1c(N2CCN(C(=O)c3cc(-c4cccs4)n[nH]3)CC2)cc(=O)n(C)c1=O | 114
CCC1CCCCN1S(=O)(=O)c1ccc(C(=O)Nc2nc3c(s2)Cc2ccccc2-3)cc1 (centres undefined) | 113
O=c1oc2ccccc2cc1-c1csc(-c2cc3cccc([N+](=O)[O-])c3oc2=O)n1 | 127
O=C(Nc1ccc(S(=O)(=O)Nc2cncs2)cc1)c1ccc(-c2cccc(C(F)(F)F)c2)o1 | 118
Cc1c(N2CCN(C(=O)Cc3ccc(F)cc3)CC2)c(=O)n(CC(C)C)c(=O)n1-c1ccccc1 | 91

Further records follow.

Compound | host macrophage viability [%]
Fc1ccc(-n2c(SCc3cccnc3)nnc2-c2cccnc2)cc1 | 116
COc1cccc(/C=C2/SC(=S)N(CC(=O)Nc3ccccc3C(=O)O)C2=O)c1 | 93.5
O=C(CSCc1ccccc1)Nc1ccccc1F | 113
CC(=O)c1cc(OC(=O)N2CCOCC2)ccc1OC(=O)N1CCOCC1 | 115
O=C(NCc1cccnc1)c1cnn2c(C(F)(F)F)cc(-c3ccccc3)nc12 | 132
CCOC(=O)c1ccc(Nc2nc(N)c(C(=O)c3cccc(Cl)c3)s2)cc1 | 102
Clc1cccc2nc3n(c12)CCN(Cc1ccccc1)C3 | 117
CC1(C)COc2ccc(NC(=O)Cc3cccs3)cc2NC1=O | 112
Cn1c(=O)[nH]c(=O)c2cnc(-c3ccncc3)nc21 | 91.4
O=C(Cc1ccccc1)NN1C(=O)/C(=C/C=C/c2ccccc2)SC1=S | 91.1 ± 8.4
Nc1ncnc2c1c1nc3ccccc3nc1n2CCc1ccccc1 | 108
CS(=O)(=O)Nc1nc2ccc(NC(=O)c3cccnc3)cc2s1 | 100
CS(=O)CCNC(=O)Nc1cccc2ccccc12 (centres undefined) | 103
CCc1ccccc1NC(=O)NC1CC2CCCC(C1)N2Cc1ccccc1 (centres undefined) | 121
O=C(NC1CCCC1)c1cnc(N2CCCCC2)c2ccccc12 | 111
CCOC(=O)c1nn(-c2ccc(F)cc2)c(=O)cc1OCC(=O)NCCc1ccc(OC)c(OC)c1 | 110
Cc1cc2c(c(=O)n1CCO)C(c1cccc(F)c1)C(C#N)=C(N)O2 (centres undefined) | 111
Cn1c(=O)cc2c3c(c(Nc4ccccc4)ccc31)C(=O)c1ccccc1-2 | 123
COc1cc(/C=C2\SC(=S)N(c3ccc(O)cc3)C2=O)cc(OC)c1OC | 120
Cc1cccc(Cn2c(N(C)Cc3ccccc3)nc3c2c(=O)[nH]c(=O)n3C)c1 | 102 ± 2.9
CCN1CCN(c2nn3c(NC(C)(C)C)c(-c4ccc(Cl)cc4)nc3s2)CC1 | 113
COC(=O)c1c(NC(=O)Nc2c(-c3cccnc3)[nH]c3ccc(F)cc23)sc2c1CCCC2 | 98.4
CCCNC(=O)Cn1nc(-c2ccc(C)cc2)c2cnc3ccc(CC)cc3c21 | 106
COCCNc1c(-c2ccc(OC)c(O)c2)nc2sc3cc(Cl)ccc3n12 | 123
O=C(c1ncoc1-c1ccc(F)cc1)N1CCC2(CC1)C(=O)NCN2c1ccccc1 | 106
O=C(Nc1ccccc1)Nc1cccc(N2CCn3c(nc4cc(Cl)ccc43)C2)c1 | 127
